# Data reported in US20230338310A1, “ANTI-VIRAL THERAPY” (priority 2020, published 2023).
# Experiment: PLP thiazolidine formation: reaction with pyridoxal-5′ phosphate cofactor, absorbance scan
# [1] = 2 mM compound + 2 mM PLP, carbonate-bicarbonate buffer pH 7.4, 1 h room temperature, n=6
smiles,measurement,setting,value
NCCS.O=C(O)C(O)C(O)C(=O)O (stereo not drawn) [cysteamine bitartrate],"absorbance at 320 nm, reaction products versus PLP alone",[1],significant difference
same,absorbance at 390 nm versus PLP alone,[1],significant reduction
same,reaction with PLP (thiazolidine formation),"equimolar 2 mM, pH 7.4",react with PLP
